Data: paper PMC11414389
These are yes or no findings as the source states them, for the method shown. Binding seen in cells or lysates may run through a third protein. Some binding calls cover weakened binding; strength is not graded here.

Sequences of proteins named here, by UniProt entry; tags and fusion partners are left off. A change or cut given only in a name is not applied to a line headed by its entry.
UniProt Q16254: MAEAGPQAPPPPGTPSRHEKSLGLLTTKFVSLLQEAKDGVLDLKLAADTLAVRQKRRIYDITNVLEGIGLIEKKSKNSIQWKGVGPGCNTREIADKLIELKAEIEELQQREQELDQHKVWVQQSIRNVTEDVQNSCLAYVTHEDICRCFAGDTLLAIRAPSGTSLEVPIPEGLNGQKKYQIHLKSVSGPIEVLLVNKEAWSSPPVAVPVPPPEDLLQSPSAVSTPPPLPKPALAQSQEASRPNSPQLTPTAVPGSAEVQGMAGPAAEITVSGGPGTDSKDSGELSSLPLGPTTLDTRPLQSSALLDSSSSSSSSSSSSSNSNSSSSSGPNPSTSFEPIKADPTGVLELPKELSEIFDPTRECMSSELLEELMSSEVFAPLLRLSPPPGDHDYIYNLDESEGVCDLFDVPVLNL

Target: T1, nucleobindin 2 (NUCB2) (human (endogenous in SNU449 and Huh-7)) (UniProt P80303)
T1 sequence: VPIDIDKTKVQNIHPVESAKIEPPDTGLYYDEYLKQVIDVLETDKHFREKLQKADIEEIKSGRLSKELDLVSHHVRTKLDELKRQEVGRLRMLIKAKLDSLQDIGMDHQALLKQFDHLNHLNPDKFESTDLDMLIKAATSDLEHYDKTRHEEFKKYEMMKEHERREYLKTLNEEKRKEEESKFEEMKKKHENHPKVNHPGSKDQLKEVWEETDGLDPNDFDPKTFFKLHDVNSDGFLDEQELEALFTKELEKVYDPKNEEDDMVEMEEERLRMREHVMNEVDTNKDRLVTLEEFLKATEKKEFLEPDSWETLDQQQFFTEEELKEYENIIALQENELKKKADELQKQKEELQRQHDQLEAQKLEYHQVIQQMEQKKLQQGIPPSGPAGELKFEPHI
Assay: co-IP; SNU449 and Huh-7 cell lysates immunoprecipitated with control IgG or anti-E2F4 or NUCB2 antibodies; immunoprecipitates detected by blotting with the indicated antibodies; endogenous proteins

“E2F transcription factor 4 (E2F4) (from UniProt Q16254 1-413)” was tested, and the binding was “binds”.
